For at least one compound, name, drawing or mass did not settle the structure.
System: genetically modified MDCK cell line (RasV12 and GFP gene)
Experiment: Cross-electrode impedance mapping of cell adhesion in genetically modified MDCK cell line with tetracycline-switched RasV12 and GFP gene
Format: cell-based, Canine
Settings: tetracycline added after 2 DIV measurement, turns on RasV12/GFP; compared to control culture without tetracycline

SMILES: CN(C)[C@@H]1C(O)=C(C(N)=O)C(=O)[C@@]2(O)C(O)=C3C(=O)c4c(O)cccc4[C@@](C)(O)[C@H]3C[C@@H]12 [tetracycline]
- effect on cell adhesion (normalized cross-electrode impedance): decrease in cell adhesion
